In publication PMC2447832:
Results are given in words; binding and its absence hold for the method and conditions named. Binding seen in cells or lysates may run through a third protein. Some results given as binding are weak or reduced against the parent protein; the word gives no strength. Sequences can lack the tags named with a protein. Each block holds one binder with its values, some of them ahead of it.

What was measured:
[1] = biological target: T1, HA-tagged LHX9α (mouse) (UniProt Q9WUH2); experiment: co-IP; HEK293 cells co-transfected with pCS2+HA-Lhx9 and a FLAG-tagged partner; cleared lysates in TNN-plus buffer (Tris HCl pH 7.5, 150 mM NaCl, 0.5% Igepal, 5 mM EDTA, protease inhibitor) on Anti-HA Affinity Matrix for 2 h in a cold room, 4 washes; Western blot with anti-FLAG M2 peroxidase conjugate
T1 sequence: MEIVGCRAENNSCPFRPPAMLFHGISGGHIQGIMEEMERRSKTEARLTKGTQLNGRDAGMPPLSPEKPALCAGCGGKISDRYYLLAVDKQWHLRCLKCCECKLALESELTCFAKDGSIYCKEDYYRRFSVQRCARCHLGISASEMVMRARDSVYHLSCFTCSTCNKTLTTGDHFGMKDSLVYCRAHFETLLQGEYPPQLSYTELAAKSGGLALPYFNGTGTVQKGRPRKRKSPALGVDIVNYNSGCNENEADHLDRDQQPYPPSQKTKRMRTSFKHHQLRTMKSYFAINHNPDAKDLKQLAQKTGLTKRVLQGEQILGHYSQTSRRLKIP

[2] = biological target: T2, LHX9β (mouse) (UniProt Q9WUH2); experiment: co-IP; IP-Western analysis (Fig 7) as told for LHX9β in a heading and the discussion; no LHX9β construct or set-up is described
T2 sequence: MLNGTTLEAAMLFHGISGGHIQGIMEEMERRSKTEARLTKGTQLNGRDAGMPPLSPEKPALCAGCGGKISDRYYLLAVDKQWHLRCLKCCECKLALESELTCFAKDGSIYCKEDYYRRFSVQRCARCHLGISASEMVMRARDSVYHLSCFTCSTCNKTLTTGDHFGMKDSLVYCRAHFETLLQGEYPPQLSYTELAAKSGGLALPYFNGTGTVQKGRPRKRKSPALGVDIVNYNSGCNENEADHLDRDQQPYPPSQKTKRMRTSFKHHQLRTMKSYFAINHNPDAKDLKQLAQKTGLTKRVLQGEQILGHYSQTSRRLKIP

binding [1]: binds
B1: FLAG-tagged ISL1β (protein, UniProt P61372-2 1-326)
chain: MGDMGDPPKKKRLISLCVGCGNQIHDQYILRVSPDLEWHAACLKCAECNQYLDESCTCFVRDGKTYCKRDYIRLYGIKCAKCSIGFSKNDFVMRARSKVYHIECFRCVACSRQLIPGDEFALREDGLFCRADHDVVERASLGAGDPLSPLHPARPLQMAAEPISARQPALRPHVHKQPEKTTRVRTVLNEKQLHTLRTCYAANPRPDALMKEQLVEMTGLSPRVIRVWFQNKRCKDKKRSIMMKQLQQQQPNDKTANPVEVQSYQPPWKVLSDFALQSDIDQPAFQQLVNFSEGGPGSNSTGSEVASMSSQLPDTPNSMVASPIEA

binding [1]: binds
B2: FLAG-tagged ISL1α (protein, UniProt P61372-1 1-349)
chain: MGDMGDPPKKKRLISLCVGCGNQIHDQYILRVSPDLEWHAACLKCAECNQYLDESCTCFVRDGKTYCKRDYIRLYGIKCAKCSIGFSKNDFVMRARSKVYHIECFRCVACSRQLIPGDEFALREDGLFCRADHDVVERASLGAGDPLSPLHPARPLQMAAEPISARQPALRPHVHKQPEKTTRVRTVLNEKQLHTLRTCYAANPRPDALMKEQLVEMTGLSPRVIRVWFQNKRCKDKKRSIMMKQLQQQQPNDKTNIQGMTGTPMVAASPERHDGGLQANPVEVQSYQPPWKVLSDFALQSDIDQPAFQQLVNFSEGGPGSNSTGSEVASMSSQLPDTPNSMVASPIEA

binding [2]: no binding
binding [1]: no binding
B3: FLAG-tagged CITED2 (protein, UniProt O35740 1-269)
chain: MADHMMAMNHGRFPDGTNGLHHHPAHRMGMGQFPSPHHHQQQQPQHAFNALMGEHIHYGAGNMNATSGIRHAMGPGTVNGGHPPSALAPAARFNNSQFMGPPVASQGGSLPASMQLQKLNNQYFNHHPYPHNHYMPDLHPTAGHQMNGTNQHFRDCNPKHSGGSSTPGGAGGSGTPGGSGGTSGGAGGSSAGGSGGGSTMPASVAHVPAAMLPPNVIDTDFIDEEVLMSLVIEMGLDRIKELPELWLGQNEFDFMTDFVCKQQPSRVSC
